Drawing on patent US20250163147A1, this text covers binding for 1 molecule.

No constants are given. Whether binding was seen depends on the method and setting. Some binding calls cover weakened binding; strength is not graded here. Sequences can lack the tags named with a protein.

The target of one assay is T1, human DCIR-Fc (human) (UniProt Q9UMR7).
T1 sequence (looked up): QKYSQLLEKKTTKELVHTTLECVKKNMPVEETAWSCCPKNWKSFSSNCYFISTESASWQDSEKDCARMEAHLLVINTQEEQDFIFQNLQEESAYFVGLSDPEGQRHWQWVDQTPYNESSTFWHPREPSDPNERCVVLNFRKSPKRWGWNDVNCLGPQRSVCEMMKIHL
Briefly: ELISA, antibody coated on plate (10 µg/ml), DCIR-Fc 5 µg/ml in solution, detected with peroxidase anti-human Fc. A general note: An ELISA detects its analyte on a solid surface through an enzyme-linked reagent.

A further assay has as its target T2, mouse DCIR-Fc (mouse) (UniProt Q9QZ15).
T2 sequence (looked up): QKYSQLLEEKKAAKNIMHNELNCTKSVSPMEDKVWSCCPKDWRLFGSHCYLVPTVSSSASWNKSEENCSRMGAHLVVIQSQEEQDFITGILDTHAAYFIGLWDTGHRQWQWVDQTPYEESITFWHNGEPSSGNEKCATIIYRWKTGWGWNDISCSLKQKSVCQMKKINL
Described as above.

B1: anti-DCIR antagonist antibody (5A3D8) (antibody, V domains shown)
VH: EVQLQQSGPELVKPGASVKMSCKASGYTFTSYVMHWVKQKPGQGLEWIGYINPYNDGTKYNEKFKGKATLTSDKSSSTAYMELSSLTSEDYAVYYCARSYKRYDWYPRWGAGTTV
VL: DIVMTQSQKFMSTSVGDRVSVTCKASQNVGTNVAWYQQKPGQSPKALIYSASYRYSGVPDRFTGSGSGTDFTLTISNVQSEDLAEYFCQQYNSYPLTFGGGTKLEIK
With B1, the binding result with human DCIR-Fc (human) and in the assay with mouse DCIR-Fc (mouse) was “binds” each time.
